Laboratory results published in PMC12532918.
Results are given in words; binding and its absence hold for the method and conditions named. In cells and extracts the contact can be indirect.

By UniProt entry, the sequences of proteins in these tests, tags left out.
UniProt P61073: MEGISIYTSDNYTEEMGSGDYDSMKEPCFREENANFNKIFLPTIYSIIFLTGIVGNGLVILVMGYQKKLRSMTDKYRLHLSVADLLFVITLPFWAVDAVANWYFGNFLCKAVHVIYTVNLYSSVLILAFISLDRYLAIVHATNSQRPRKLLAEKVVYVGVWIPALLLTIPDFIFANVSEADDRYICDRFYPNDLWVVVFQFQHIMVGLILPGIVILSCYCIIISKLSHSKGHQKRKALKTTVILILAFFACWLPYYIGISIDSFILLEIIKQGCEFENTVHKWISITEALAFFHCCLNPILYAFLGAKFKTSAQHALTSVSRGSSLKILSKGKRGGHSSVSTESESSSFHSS
UniProt P41595: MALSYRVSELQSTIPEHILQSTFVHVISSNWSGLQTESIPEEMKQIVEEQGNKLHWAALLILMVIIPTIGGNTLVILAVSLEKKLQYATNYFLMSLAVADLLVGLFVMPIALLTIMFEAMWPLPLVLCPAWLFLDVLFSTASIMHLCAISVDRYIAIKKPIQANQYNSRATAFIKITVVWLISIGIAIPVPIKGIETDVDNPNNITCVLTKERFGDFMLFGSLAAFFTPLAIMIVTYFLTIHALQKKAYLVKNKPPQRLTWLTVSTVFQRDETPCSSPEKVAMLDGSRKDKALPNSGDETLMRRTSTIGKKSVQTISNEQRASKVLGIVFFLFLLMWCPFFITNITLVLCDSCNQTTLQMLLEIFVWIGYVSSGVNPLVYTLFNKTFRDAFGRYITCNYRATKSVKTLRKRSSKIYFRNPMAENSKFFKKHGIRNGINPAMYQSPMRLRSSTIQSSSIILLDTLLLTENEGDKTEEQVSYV

Target: CXCR4-CFP / CXCR4-YFP (human) (UniProt P61073)
Assay: FRET or BRET; FLIM (CFP donor lifetime) in live HEK-293T cells transfected with CXCR4-YFP/CXCR4-CFP or 5HTR2B-YFP/CXCR4-CFP (15 µg : 9 µg); CXCR4-CFP alone as reference; untreated or ChOx (25 U/mL, 2 h, 37 °C); without or with CXCL12 (100 nM, 30 min)

binding: no binding
Substance: 5HTR2B-YFP (from UniProt P41595 1-481) (receptor)
